Data published in the supplement of paper PMC7411640.
Where a name gives a salt, the structure may show the parent alone. This is one part of the list. Most values lie within the scatter of the assay; repeated measurements hardly agree.

System: MDA-MB-468
Assay: phospho-S6 immunofluorescence (DAPI-normalised), per-plate z-score; higher = higher phospho-S6 signal (less pathway suppression)
Conditions: 24 h
Procedure: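 GPCR-targeted compound library (MedChemExpress HY-L006) tested on MDA-MB-468 PTEN-null TNBC cells in 384-well plates at 0.1, 1 or 10 uM, combined with vehicle, GDC0941 450 nM or lapatinib 1 uM, for 24 h. Phospho-S6 (S240/244) immunofluorescence normalised to DAPI and expressed as a per-plate z-score; values are the mean of biological triplicates.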

[1] = compound 0.1 µM, co-treatment: GDC0941 450 nM
[2] = compound 0.1 µM, co-treatment: lapatinib 1 uM
[3] = compound 0.1 µM, co-treatment: vehicle
[4] = compound 1 µM, co-treatment: GDC0941 450 nM
[5] = compound 1 µM, co-treatment: lapatinib 1 uM
[6] = compound 1 µM, co-treatment: vehicle
[7] = compound 10 µM, co-treatment: GDC0941 450 nM
[8] = compound 10 µM, co-treatment: lapatinib 1 uM
[9] = compound 10 µM, co-treatment: vehicle

Structure (SMILES)	phospho-S6 immunofluorescence (z-score) [1]	phospho-S6 immunofluorescence (z-score) [2]	phospho-S6 immunofluorescence (z-score) [3]	phospho-S6 immunofluorescence (z-score) [4]	phospho-S6 immunofluorescence (z-score) [5]	phospho-S6 immunofluorescence (z-score) [6]	phospho-S6 immunofluorescence (z-score) [7]	phospho-S6 immunofluorescence (z-score) [8]	phospho-S6 immunofluorescence (z-score) [9]
CCCN(CCc1cccs1)[C@H]1CCc2c(O)cccc2C1 [Rotigotine]	0.5	-0.19	-0.46	0.12	-0.35	-0.35	–	–	–
CCC(=O)O[C@]1(C(=O)SCF)[C@H](C)C[C@H]2[C@@H]3C[C@H](F)C4=CC(=O)C=C[C@]4(C)[C@@]3(F)[C@@H](O)C[C@@]21C [Fluticasone (propionate)]	-1.73	-0.4	0.2	-0.91	0.37	0.11	0.26	-0.29	-0.43
COc1cc(N)c(Cl)cc1C(=O)NC1CCN(CCCOc2ccc(F)cc2)CC1OC (configuration not stated) [Cisapride]	-0.53	-0.81	-0.59	-0.05	-0.59	-0.11	-1.02	-1.88	-0.58
N[C@@H](COP(=O)(O)O)C(=O)O [O-Phospho-L-serine]	-1.22	-2.21	-1.79	-0.35	-0.71	-2.19	0.23	0.05	-0.66
O=C1c2cccc3c2[C@H](CCC3)CN1[C@@H]1CN2CCC1CC2 [Palonosetron (Hydrochloride)]	-0.56	0.67	0.62	-0.23	1.2	-0.84	-0.7	0.4	-0.33
